Measurements taken from PubChem BioAssay AID272 (DTP/NCI, 2004).
The list does not hold the whole screen: it is rich in T/C values a quarter to a half above the control, in often repeated tests (any T/C) and in doses without a T/C. Other doses and runs of a compound stand elsewhere. T/C gives the treated animals as a percentage of the vehicle group. Some entries give survivors of the animals treated and no T/C: the source holds a T/C of zero for them, seemingly a mark for toxic or unscored doses. Survivors were counted at the toxicity check, usually on the fifth day, unless a day is given; later deaths do not show. Schedule codes are those of the source, read here as Q, the interval in days (D) or hours (H), X, the number of doses.

Test system: Lewis lung carcinoma i.m., BDF1 mice, T/C %
Test: NCI In Vivo Anticancer Drug Screen. Data for tumor model Lewis Lung Carcinoma (intramuscular) in B6D2F1 (BDF1) mice
Conditions: T/C endpoint: median survival time, schedule: Q01DX011 (ip), vehicle: saline with Tween-80, higher T/C = longer survival
Outline: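 Transplantable tumour model; readout survival or tumour size; value = treated (T) / vehicle control (C).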

Measured: survivor count

C[N+](C)(C)c1cc2c(nn1)Nc1ccccc1S2
0 of 8: dose: 8.5 mg/kg/injection | dose: 17.0 mg/kg/injection | dose: 34.0 mg/kg/injection | dose: 68.0 mg/kg/injection
